The test system of this experiment is CD2F1 mice, L1210 leukemia ip, survival T/C. Nature of the experiment: NCI In Vivo Anticancer Drug Screen. Data for tumor model L1210 Leukemia (intraperitoneal) in CD2F1 (CDF1) mice. The settings on record: higher T/C = longer survival. In outline:
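Antitumor effect is scored in animals hosting a serially transplanted tumor. Values compare compound-dosed animals against vehicle-only controls as a simple quotient.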

Setting [1] is: T/C endpoint: mean survival time, dose: 100.0 mg/kg/injection, schedule: Q01DX001 (ip), vehicle: saline.
[2] abbreviates: T/C endpoint: mean survival time, dose: 200.0 mg/kg/injection, schedule: Q01DX001 (ip), vehicle: saline.
Setting [3] is: T/C endpoint: mean survival time, dose: 400.0 mg/kg/injection, schedule: Q01DX001 (ip), vehicle: saline.
Setting [4] is: T/C endpoint: mean survival time, dose: 100.0 mg/kg/injection, schedule: Q04DX002 (ip), vehicle: saline with Tween-80.
The mark [5] stands for this setting: T/C endpoint: mean survival time, dose: 200.0 mg/kg/injection, schedule: Q04DX002 (ip), vehicle: saline with Tween-80.
Where [6] appears, read: T/C endpoint: mean survival time, dose: 400.0 mg/kg/injection, schedule: Q04DX003 (ip), vehicle: saline with Tween-80.
[7] abbreviates: T/C endpoint: mean survival time, dose: 100.0 mg/kg/injection, schedule: Q01DX009 (ip), vehicle: saline with Tween-80.
[8] abbreviates: T/C endpoint: mean survival time, dose: 150.0 mg/kg/injection, schedule: Q01DX001 (ip), vehicle: saline.
Where [9] appears, read: T/C endpoint: mean survival time, dose: 300.0 mg/kg/injection, schedule: Q01DX001 (ip), vehicle: saline.

The list is a part of this screen's results and no random one: it gathers tests that were run many times, whatever their T/C, doses with no T/C, and many T/C values between a quarter and a half above the control. Other doses and runs of a compound stand elsewhere. T/C is the treated group as % of the vehicle group. Some entries give survivors of the animals treated and no T/C: the source holds a T/C of zero for them, seemingly a mark for toxic or unscored doses. Some doses without a T/C left all or most animals alive at the check, yet need not have been tolerated: survival well below the control is almost never listed, so the zero probably covers shortened survival too. Counts of survivors are from the toxicity check (mostly the fifth day) where no day follows; animals may have died later. Schedule codes are those of the source, taken here to give the interval after Q, in days (D) or hours (H), and the number of doses after X. Some doses were run more than once; the results are listed from low to high. Where survival is the endpoint, the PubChem record calls one and a half times the control and up active, and a quarter to a half above the control has no call in these data; cut-offs in other NCI protocols can differ.

With `CC1CC(C)(C)C(C[NH-])C1[NH-].[Cl][Pt+2][Cl]` (centres undefined), the T/C runs as follows: (T/C endpoint: mean survival time, dose: 3.12 mg/kg/injection, schedule: Q04DX003 (ip), vehicle: saline) 132 % of control; (T/C endpoint: mean survival time, dose: 25.0 mg/kg/injection, schedule: Q04DX003 (ip), vehicle: saline) 129 and 137 % of control; (T/C endpoint: mean survival time, dose: 50.0 mg/kg/injection, schedule: Q04DX003 (ip), vehicle: saline) 132 % of control. Further, for the setting “T/C endpoint: mean survival time, dose: 200.0 mg/kg/injection, schedule: Q04DX003 (ip), vehicle: saline”, the survivor count is 4 of 6.

With `Cc1ccccc1[P+](Cc1ccccc1)(c1ccccc1)c1ccccc1`, the survivor count reads like this: under setting [1], 0 of 6; under setting [2], 0 of 6; under setting [3], 0 of 6.

For the compound `COc1cc(/C=C2\SC(=O)NC2=O)ccc1O`, the survivor count (T/C endpoint: mean survival time, dose: 200.0 mg/kg/injection, schedule: Q01DX009 (ip), vehicle: saline with Tween-80) was 0 of 6 and the survivor count (T/C endpoint: mean survival time, dose: 400.0 mg/kg/injection, schedule: Q01DX009 (ip), vehicle: saline with Tween-80) is 0 of 6.

`O=C1C2C3CC4C2C(Br)C2C1C3C42` (centres undefined): the survivor count by setting is: under setting [4], 2 of 3; under setting [5], 0 of 3.

As to `[O-][n+]1onc2ccccc21`, the survivor count under setting [4] is on record as 1 of 3; the survivor count under setting [5] was 0 of 3; the survivor count (T/C endpoint: mean survival time, dose: 400.0 mg/kg/injection, schedule: Q04DX002 (ip), vehicle: saline with Tween-80) was 0 of 3.

Turning to `CCCCCCCCCCCCCC[n+]1ccccc1`, the survivor count is 2 of 6 (T/C endpoint: mean survival time, dose: 0.5 mg/kg/injection, schedule: Q04DX003 (ip), vehicle: saline sonified); 1 of 6 (T/C endpoint: mean survival time, dose: 1.0 mg/kg/injection, schedule: Q04DX003 (ip), vehicle: saline sonified); 0 of 6 (T/C endpoint: mean survival time, dose: 5.0 mg/kg/injection, schedule: Q04DX003 (ip), vehicle: saline with Tween-80); 1 of 6 (T/C endpoint: mean survival time, dose: 10.0 mg/kg/injection, schedule: Q04DX003 (ip), vehicle: saline with Tween-80); 1 of 6 (T/C endpoint: mean survival time, dose: 20.0 mg/kg/injection, schedule: Q04DX003 (ip), vehicle: saline with Tween-80); 0 of 6 (T/C endpoint: mean survival time, dose: 100.0 mg/kg/injection, schedule: Q04DX003 (ip), vehicle: saline with Tween-80). Besides, the survivor count is given as 0 of 6 (T/C endpoint: mean survival time, dose: 200.0 mg/kg/injection, schedule: Q04DX003 (ip), vehicle: saline with Tween-80) and 0 of 6 under setting [6].

Take `O=C(O)C(O)C(O)C(O)C(O)C(O)CO.[NH-]C1CCCCC1[NH-].[Pt+2]` (centres undefined): the T/C (T/C endpoint: median survival time, dose: 6.25 mg/kg/injection, schedule: Q04DX003 (ip), vehicle: saline) was 128 and 147 % of control. The survivor count (T/C endpoint: median survival time, dose: 100.0 mg/kg/injection, schedule: Q04DX003 (ip), vehicle: saline) is on record as 4 of 6.

With `O=C1CCc2c1cc(O)c1ccc(S(=O)(=O)O)cc21`, the survivor count is 3 of 6 under setting [1], 0 of 6 under setting [2] and 0 of 6 under setting [3].

Take `CC(C)[C@](O)(C(=O)OCC1=CCN2CC[C@@H](O)[C@@H]12)[C@H](C)O`: the survivor count (T/C endpoint: median survival time, dose: 800.0 mg/kg/injection, schedule: Q01DX009 (ip), vehicle: water) is recorded as 0 of 6.

Regarding `CSc1ccc(OC(=O)Nc2ccc(C)cc2C)cc1C`, the survivor count under setting [7] was 3 of 3.

In the case of `CCC12CCCN3CCc4c(n(c5ccccc45)C(O)(C(=O)OC)C1)C32` (centres undefined), the survivor count (T/C endpoint: mean survival time, dose: 75.0 mg/kg/injection, schedule: Q01DX001 (ip), vehicle: saline) was 0 of 6; the survivor count (T/C endpoint: mean survival time, dose: 80.0 mg/kg/injection, schedule: Q01DX001 (ip), vehicle: saline) is 0 of 6; the survivor count under setting [8] is 0 of 6; the survivor count under setting [9] is on record as 0 of 6.

`N=P(N[P+](N)(c1ccccc1)c1ccccc1)(c1ccccc1)c1ccccc1`: the survivor count is given as 3 of 6 (T/C endpoint: mean survival time, dose: 12.5 mg/kg/injection, schedule: Q01DX009 (ip), vehicle: Klucel (hydroxypropylcellulose) (HPC)); 0 of 6 (T/C endpoint: mean survival time, dose: 25.0 mg/kg/injection, schedule: Q01DX009 (ip), vehicle: Klucel (hydroxypropylcellulose) (HPC)); 0 of 6 (T/C endpoint: mean survival time, dose: 50.0 mg/kg/injection, schedule: Q01DX009 (ip), vehicle: Klucel (hydroxypropylcellulose) (HPC)).

For `c1ccc2c(c1)nnn2-c1ccncc1`, under setting [6], the survivor count is listed as 5 of 6.

Consider `CN=C(N)N/N=C(\C)c1ccc2c(c1)Cc1cc(/C(C)=N/NC(N)=NC)ccc1-2`, for which the T/C reads like this: (T/C endpoint: median survival time, dose: 0.75 mg/kg/injection, schedule: Q01DX009 (ip), vehicle: saline with Tween-80) 125 and 132 % of control; (T/C endpoint: median survival time, dose: 1.5 mg/kg/injection, schedule: Q01DX009 (ip), vehicle: saline with Tween-80) 130 and 144 % of control; (T/C endpoint: median survival time, dose: 3.0 mg/kg/injection, schedule: Q01DX009 (ip), vehicle: saline with Tween-80) 132 % of control. Moreover, for the setting “T/C endpoint: median survival time, dose: 12.0 mg/kg/injection, schedule: Q01DX009 (ip), vehicle: saline with Tween-80”, the survivor count is 1 of 6 and 3 of 6.

Regarding `N=C(N)SCCSC(=N)N`, the survivor count (T/C endpoint: mean survival time, dose: 400.0 mg/kg/injection, schedule: Q04DX003 (ip), vehicle: saline) is given as 0 of 6.

As to `CCCC1NNC(CCC)NN1` (centres undefined), the survivor count by setting is: under setting [8], 0 of 6; under setting [9], 0 of 6.

Regarding `COc1cc(C)c(Cl)[n+]([O-])n1`, the survivor count runs as follows: (T/C endpoint: mean survival time, dose: 25.0 mg/kg/injection, schedule: Q04DX002 (ip), vehicle: saline with Tween-80) 1 of 3; (T/C endpoint: mean survival time, dose: 50.0 mg/kg/injection, schedule: Q04DX002 (ip), vehicle: saline with Tween-80) 0 of 3.

In the case of `COc1c(O)ccc(/C=C2/SC(=S)NC2=O)c1[N+](=O)[O-]`, the survivor count reads like this: (T/C endpoint: mean survival time, dose: 200.0 mg/kg/injection, schedule: Q01DX001 (ip), vehicle: saline with Tween-80) 2 of 6; (T/C endpoint: mean survival time, dose: 400.0 mg/kg/injection, schedule: Q01DX001 (ip), vehicle: saline with Tween-80) 0 of 6.

`O=P(c1ccccc1)(c1ccccc1)c1ccccc1`: the survivor count under setting [6] was 5 of 6.

Consider `CCCOC(=O)c1cc([N+](=O)[O-])c(Sc2ncnc3nc[nH]c23)c([N+](=O)[O-])c1`, for which the T/C runs as follows: (T/C endpoint: mean survival time, dose: 15.6 mg/kg/injection, schedule: Q01DX005 (ip), vehicle: other) 142 % of control; (T/C endpoint: mean survival time, dose: 31.3 mg/kg/injection, schedule: Q01DX005 (ip), vehicle: other) 146 % of control.

Regarding `O=c1nc(-c2ccco2)sc(=O)[nH]1`, under “T/C endpoint: median survival time, dose: 400.0 mg/kg/injection, schedule: Q01DX009 (ip), vehicle: Klucel (hydroxypropylcellulose) (HPC)”, the survivor count is reported as 0 of 6.

As for `CC(=O)C(C(C)=O)C1C=CC=CC=C1`, the survivor count under setting [7] is 6 of 6.

As for `C1CCC(N=C(NC2CCCCC2)NC2CCCCC2)CC1`, the survivor count under setting [6] is recorded as 0 of 3.

Source of the values: PubChem BioAssay AID256 (DTP/NCI, 2004).
